Laboratory results reported in PubChem BioAssay (NCATS).
This list was built around the results that the source calls inconclusive (neither active nor inactive); the mix of calls is not that of the screen. Potencies of inconclusive entries are doubtful fits and often do not repeat. Activity calls are given as the source filed them. Calls come from the whole dose curve; as a rule, active = well fitted cell-killing curve with a large enough effect; inconclusive = small, poorly fitted or top-dose-only effect, or effect the other way; inactive = no such curve, though single readings can be large or run the other way.
Potency is the fitted concentration of half-maximal effect.

Assay: Quantitative High-Throughput drug screen in 47 multiple myeloma cell lines against the NCATS MIPE library collection: OPM1_PLB cell viability assay (AID 1918989); note: nearly all actives have a fitted effect of over 40% in size
Conditions: CellTiter-Glo, 48 h; series mostly up to 45.8 µM
In short: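 ATP-based luminescence (CellTiter-Glo, 5 min RT incubation) quantified surviving cells following two days' treatment with MIPE 4.0 agents at 37 °C, 5% CO2.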
In the case of CCC(=O)N[C@H]1CC[C@H](C(=O)N(C)c2ccc(-c3nc4ccccc4o3)cc2)C1, the Potency is reported as inconclusive: 14.8 µM [cytotoxic, partial curve, poor fit].
For COc1ccccc1OCCNCC(O)COc1cccc2[nH]c3ccccc3c12 (configuration not stated), the Potency was inconclusive: 18.7 µM [cytotoxic, partial curve].
For CC1(C)CCC(C)(C)c2cc(NC(=O)c3ccc(C(=O)O)cc3)ccc21, the Potency was inconclusive: 23.5 µM [cytotoxic, single point].
For CCCCCCCCCC(=O)N[C@@H](Cc1c[nH]c2ccccc12)C(=O)N[C@H](CC(N)=O)C(=O)N[C@@H](CC(=O)O)C(=O)N[C@@H]1C(=O)NCC(=O)N[C@@H](CCCN)C(=O)N[C@@H](CC(=O)O)C(=O)N[C@H](C)C(=O)N[C@@H](CC(=O)O)C(=O)NCC(=O)N[C@H](CO)C(=O)N[C@@H]([C@@H](C)CC(=O)O)C(=O)N[C@@H](CC(=O)c2ccccc2N)C(=O)O[C@@H]1C, the Potency was inconclusive: 0.0209 µM [rising, full curve, poor fit].
With CCC[C@@H](NC(=O)[C@@H]1[C@H]2CCC[C@@H]2CN1C(=O)[C@@H](NC(=O)[C@@H](NC(=O)c1cnccn1)C1CCCCC1)C(C)(C)C)C(=O)C(=O)NC1CC1 the Potency was inconclusive: 26.4 µM [cytotoxic, single point].
With CNc1nc(Nc2ccc(C(=O)N3CCOCC3)cc2OC)ncc1Cl the Potency was “inactive”.
With CC(=O)O[C@]1(C(C)=O)CC[C@H]2[C@@H]3C=C(Cl)C4=CC(=O)[C@@H]5C[C@H]5[C@]4(C)[C@@H]3CC[C@@]21C the Potency was inconclusive: 37.2 µM [cytotoxic, single point].
